Earlier results as cited in patent publication US8268549B2, “Method and assay for determining methylation of GAL3 promoter for early diagnosis of prostate cancer” (University of Maryland, Baltimore, priority 2005, dated 2012).
Some of these results come from one statement about several compounds together.

System: galectins
Conditions: most galectins

Structure (SMILES) | activity relative to Lac, times more active
CC(=O)N[C@H]1C(O)O[C@H](CO)[C@@H](O[C@@H]2O[C@H](CO)[C@H](O)[C@H](O)[C@H]2O)[C@@H]1O (some centres unmarked) [N-acetyllactosamine] | 5-10 times
OC[C@H]1O[C@@H](S[C@@H]2O[C@H](CO)[C@H](O)[C@H](O)[C@H]2O)[C@H](O)[C@@H](O)[C@H]1O [thiodigalactoside] | 5-10 times
